Source: PubChem BioAssay AID1671195 (Yale University, 2021)
Aim: 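Knockdowns that increase or decrease uptake of fluorescent LDL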 (primary screen). Cell system: human Huh7 hepatoma cells. Reagent: siRNA pool against human genes, 18 nM. Timing: about 2 to 2.5 days of knockdown, then 8 h LDL uptake. Treatment: DiI-labelled LDL at 30 µg/ml for 8 h, in lipoprotein-deficient serum medium. Measured: 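Fluorescent LDL signal imaged in cells, scaled to the plate median, robust z-score for each replicate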. Direction: robust z-score: higher = more LDL uptake after knockdown. Rule for the call: 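Active when two or more replicates show a robust z-score above 2 or below -2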.
In all, the deposit lists about 22,000 reagents; shown is a random part of them. About 1,510 of them (6.9%) count as active. 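Active includes knockdowns raising or lowering LDL uptake; positive z-scores mean more uptake, negative mean less.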 Entries without a mark were called inactive.

After knock-down of ANKS3 (ankyrin repeat and sterile alpha motif domain containing 3), the screen gave robust z-score, replicate 1 = 0.0978; robust z-score, replicate 2 = 0.459; robust z-score, replicate 3 = 0.66.
Silencing of H4C4 (H4 clustered histone 4) gave: robust z-score, replicate 1 = 0.00948; robust z-score, replicate 2 = 0.58; robust z-score, replicate 3 = 0.16.
Against RBMS2 (RNA binding motif single stranded interacting protein 2), the entry reads robust z-score, replicate 1 = 1.26; robust z-score, replicate 2 = 2.76; robust z-score, replicate 3 = 1.12.
ACSL3 (acyl-CoA synthetase long chain family member 3) scored robust z-score, replicate 1 = -0.668; robust z-score, replicate 2 = -0.95; robust z-score, replicate 3 = -1.43.
Against BZW1 (basic leucine zipper and W2 domains 1), the entry reads robust z-score, replicate 1 = 0.841; robust z-score, replicate 2 = 3.37; robust z-score, replicate 3 = 0.853.
After knock-down of TRIM5 (tripartite motif containing 5) the results were robust z-score, replicate 1 = -0.532; robust z-score, replicate 2 = 0.586; robust z-score, replicate 3 = 0.962.
With knock-down of LINC02579 (long independently transcribed non-coding RNA 2579), the screen gave robust z-score, replicate 1 = -0.682; robust z-score, replicate 2 = -0.572; robust z-score, replicate 3 = -0.242.
For SLC34A3, the entry reads robust z-score, replicate 1 = 0.406; robust z-score, replicate 2 = 1.41; robust z-score, replicate 3 = 2.04.
Depletion of RNF175 (ring finger protein 175) gave: robust z-score, replicate 1 = -0.621; robust z-score, replicate 2 = -0.694; robust z-score, replicate 3 = -0.736.
Silencing of ACKR1 (atypical chemokine receptor 1 (Duffy blood group)) resulted in: robust z-score, replicate 1 = 0.228; robust z-score, replicate 2 = 0.591; robust z-score, replicate 3 = 0.494.

In a second layout: 2 of the entries above.
Target gene,"robust z-score, replicate 1","robust z-score, replicate 2","robust z-score, replicate 3"
ACSL3 (acyl-CoA synthetase long chain family member 3),-0.668,-0.95,-1.43
BZW1 (basic leucine zipper and W2 domains 1),0.841,3.37,0.853

Next reagents follow.
LYZ (lysozyme) showed robust z-score, replicate 1 = 1.12; robust z-score, replicate 2 = 1.83; robust z-score, replicate 3 = 0.912.
After knock-down of MRPL4 (mitochondrial ribosomal protein L4), the record shows robust z-score, replicate 1 = -0.155; robust z-score, replicate 2 = -1.04; robust z-score, replicate 3 = -0.441.
SLITRK4 (SLIT and NTRK like family member 4) showed robust z-score, replicate 1 = -0.807; robust z-score, replicate 2 = -1.24; robust z-score, replicate 3 = -2.08.
FAM234A (family with sequence similarity 234 member A) gave robust z-score, replicate 1 = -0.338; robust z-score, replicate 2 = -0.962; robust z-score, replicate 3 = 0.109.
Depletion of CDH22 (cadherin 22) came out at: robust z-score, replicate 1 = 0.605; robust z-score, replicate 2 = 0.607; robust z-score, replicate 3 = 0.68.
With knock-down of PXYLP1 (2-phosphoxylose phosphatase 1) the results were robust z-score, replicate 1 = 2.05; robust z-score, replicate 2 = 1.09; robust z-score, replicate 3 = 1.87.
